# From doi:10.1101/428854
# The chains behind the UniProt entries cited, without tags or fusion partners. Where a name states a change or a piece, a line headed by the entry shows the natural chain unless it says otherwise. Residues count along the entry.
# UniProt Q9FN92: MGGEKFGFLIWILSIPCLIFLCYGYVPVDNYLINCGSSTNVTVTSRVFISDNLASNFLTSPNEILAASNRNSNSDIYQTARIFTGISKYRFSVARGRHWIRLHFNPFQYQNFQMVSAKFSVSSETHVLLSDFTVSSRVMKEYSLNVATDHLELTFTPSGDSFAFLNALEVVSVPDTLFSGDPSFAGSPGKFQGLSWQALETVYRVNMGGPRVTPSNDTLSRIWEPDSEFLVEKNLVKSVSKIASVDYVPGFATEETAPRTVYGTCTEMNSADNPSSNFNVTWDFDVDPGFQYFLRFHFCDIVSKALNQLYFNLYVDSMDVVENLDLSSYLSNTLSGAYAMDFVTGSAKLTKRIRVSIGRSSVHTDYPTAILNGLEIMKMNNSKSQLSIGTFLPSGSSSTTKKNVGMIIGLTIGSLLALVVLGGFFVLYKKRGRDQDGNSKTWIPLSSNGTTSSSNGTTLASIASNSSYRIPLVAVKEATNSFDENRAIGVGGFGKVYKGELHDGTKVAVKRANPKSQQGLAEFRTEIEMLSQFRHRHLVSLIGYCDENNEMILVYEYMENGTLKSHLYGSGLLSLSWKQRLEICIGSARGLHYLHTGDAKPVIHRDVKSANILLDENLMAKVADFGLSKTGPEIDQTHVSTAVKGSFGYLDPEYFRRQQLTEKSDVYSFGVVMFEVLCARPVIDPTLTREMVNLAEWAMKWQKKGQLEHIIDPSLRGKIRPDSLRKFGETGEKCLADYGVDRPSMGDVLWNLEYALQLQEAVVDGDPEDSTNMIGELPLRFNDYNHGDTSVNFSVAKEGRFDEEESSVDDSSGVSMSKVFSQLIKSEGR
# extracellular domain of HERK1 (HERK1-ECD) (Q9LX66, residues 24-405): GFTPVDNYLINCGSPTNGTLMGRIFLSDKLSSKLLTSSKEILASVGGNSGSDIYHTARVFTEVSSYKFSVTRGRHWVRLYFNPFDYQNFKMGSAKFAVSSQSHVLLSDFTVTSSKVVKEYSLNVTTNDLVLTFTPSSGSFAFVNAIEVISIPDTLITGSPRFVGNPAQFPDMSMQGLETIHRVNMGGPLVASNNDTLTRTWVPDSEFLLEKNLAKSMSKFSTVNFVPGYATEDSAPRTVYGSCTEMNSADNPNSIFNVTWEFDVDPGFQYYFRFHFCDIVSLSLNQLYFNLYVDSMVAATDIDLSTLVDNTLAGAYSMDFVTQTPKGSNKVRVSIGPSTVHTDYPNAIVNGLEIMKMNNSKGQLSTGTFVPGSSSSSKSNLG
# cytosolic kinase domain of HERK1 (HERK1-KIN) (Q9LX66, residues 429-830): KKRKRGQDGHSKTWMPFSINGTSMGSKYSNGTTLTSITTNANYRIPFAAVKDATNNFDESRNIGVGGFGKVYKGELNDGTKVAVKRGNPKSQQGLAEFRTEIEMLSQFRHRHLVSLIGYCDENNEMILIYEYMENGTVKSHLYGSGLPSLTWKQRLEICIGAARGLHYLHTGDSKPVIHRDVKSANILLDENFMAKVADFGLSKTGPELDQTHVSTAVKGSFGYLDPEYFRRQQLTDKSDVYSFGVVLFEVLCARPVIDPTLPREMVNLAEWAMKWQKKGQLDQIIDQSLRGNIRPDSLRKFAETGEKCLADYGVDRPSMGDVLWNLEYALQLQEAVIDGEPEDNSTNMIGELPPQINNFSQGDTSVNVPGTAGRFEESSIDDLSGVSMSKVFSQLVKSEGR
# T1: extracellular domain of FERONIA (FER-ECD) (Arabidopsis thaliana) (UniProt Q9SCZ4)
# T1 sequence: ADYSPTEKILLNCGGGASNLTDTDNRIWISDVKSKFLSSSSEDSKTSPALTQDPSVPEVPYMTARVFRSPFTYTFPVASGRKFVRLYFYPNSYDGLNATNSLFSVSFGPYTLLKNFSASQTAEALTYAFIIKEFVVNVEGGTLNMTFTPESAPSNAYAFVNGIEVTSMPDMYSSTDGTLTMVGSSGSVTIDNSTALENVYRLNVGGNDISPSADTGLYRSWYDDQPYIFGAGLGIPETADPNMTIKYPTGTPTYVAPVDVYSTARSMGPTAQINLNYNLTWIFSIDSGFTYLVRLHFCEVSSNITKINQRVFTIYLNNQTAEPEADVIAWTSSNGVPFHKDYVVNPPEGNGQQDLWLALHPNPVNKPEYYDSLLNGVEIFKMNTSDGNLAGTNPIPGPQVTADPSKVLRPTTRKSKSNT
# T2: LORELEI (LRE) residues 23-138 (Arabidopsis thaliana) (UniProt B3GS44)
# T2 sequence: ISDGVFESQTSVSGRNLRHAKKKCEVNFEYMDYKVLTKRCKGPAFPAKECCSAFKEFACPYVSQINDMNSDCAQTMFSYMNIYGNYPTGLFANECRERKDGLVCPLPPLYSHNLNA
# B1: HA-LRE (p35S::HA-LRE) transiently expressed in N. benthamiana (protein, UniProt B3GS44 21-139)
# chain: SSISDGVFESQTSVSGRNLRHAKKKCEVNFEYMDYKVLTKRCKGPAFPAKECCSAFKEFACPYVSQINDMNSDCAQTMFSYMNIYGNYPTGLFANECRERKDGLVCPLPPLYSHNLNAS
# B2: extracellular domain of FERONIA (FER-ECD) (domain or fragment, UniProt Q9SCZ4 28-446)
# chain: ADYSPTEKILLNCGGGASNLTDTDNRIWISDVKSKFLSSSSEDSKTSPALTQDPSVPEVPYMTARVFRSPFTYTFPVASGRKFVRLYFYPNSYDGLNATNSLFSVSFGPYTLLKNFSASQTAEALTYAFIIKEFVVNVEGGTLNMTFTPESAPSNAYAFVNGIEVTSMPDMYSSTDGTLTMVGSSGSVTIDNSTALENVYRLNVGGNDISPSADTGLYRSWYDDQPYIFGAGLGIPETADPNMTIKYPTGTPTYVAPVDVYSTARSMGPTAQINLNYNLTWIFSIDSGFTYLVRLHFCEVSSNITKINQRVFTIYLNNQTAEPEADVIAWTSSNGVPFHKDYVVNPPEGNGQQDLWLALHPNPVNKPEYYDSLLNGVEIFKMNTSDGNLAGTNPIPGPQVTADPSKVLRPTTRKSKSNT
# How the values were obtained:
# [1] = biological target: cytosolic kinase domain of FERONIA (FER-KIN) (Arabidopsis thaliana) (UniProt Q9SCZ4); assay: two-hybrid
# [2] = biological target: cytosolic kinase domain of ANJEA (ANJ-KIN) (Arabidopsis thaliana) (UniProt Q9FN92); assay: two-hybrid
# [3] = biological target: T1, extracellular domain of FERONIA (FER-ECD) (Arabidopsis thaliana); assay: two-hybrid
# [4] = biological target: extracellular domain of HERK1 (HERK1-ECD) (Arabidopsis thaliana) (UniProt Q9LX66); assay: two-hybrid
# [5] = biological target: extracellular domain of ANJEA (ANJ-ECD) (Arabidopsis thaliana) (UniProt Q9FN92); assay: two-hybrid
# [6] = biological target: T2, LORELEI (LRE) residues 23-138 (Arabidopsis thaliana); assay: two-hybrid
# [7] = biological target: ANJ-GFP (pFER::ANJ-GFP) transiently expressed in N. benthamiana (Arabidopsis thaliana) (UniProt Q9FN92); assay: co-IP
molecule,measurement,setting,value
cytosolic kinase domain of ANJEA (ANJ-KIN) (from UniProt Q9FN92) (domain or fragment),binding,[1],binds weakly
cytosolic kinase domain of HERK1 (HERK1-KIN) (from UniProt Q9LX66 429-830) (domain or fragment),binding,[2],binds weakly
extracellular domain of ANJEA (ANJ-ECD) (from UniProt Q9FN92) (domain or fragment),binding,[3],binds
same,binding,[4],binds
extracellular domain of HERK1 (HERK1-ECD) (from UniProt Q9LX66 24-405) (domain or fragment),binding,[5],binds
extracellular juxtamembrane domain of ANJEA (ANJexJM) (from UniProt Q9FN92) (domain or fragment),binding,[6],binds
extracellular juxtamembrane domain of HERCULES RECEPTOR KINASE 1 (HERK1exJM) (from UniProt Q9LX66) (domain or fragment),binding,[6],binds
B1,binding,[7],binds
B2,binding,[5],binds

# Results are given in words; binding and its absence hold for the method and conditions named. A result given as binding can be weak or reduced; the word gives no strength. For part of these data: In cells and extracts the contact can be indirect. For part of these data: Tags and fused reporters may be left off the sequences shown.
